Part of at least one peptide drawing is inferred or uncertain, most often the ends. Ends that are not written are not given here.
Molecular target: T1, HIV six-helix bundle of gp41 (IQN36 / C34) (Human immunodeficiency virus type 1 group M subtype B, UniProt P04578)
T1 construct: made in house; host or cells: chemical peptide synthesis, no expression host
Experiment: HIV-FRET IQN36/C34 homogeneous time resolved fluorescence test system (6-helix bundle formation)
Format: binding, Human Immunodeficiency Virus (HIV-1)
Protocol: All reagents were dissolved in 100 mM Hepes buffer pH 7.2. Test compounds were serially diluted and then added to 384-well plates. A final concentration of 10 nM S-APC and 100 nM IQN36-biotin were mixed in tubes, incubated for 30 min at room temperature and then added to well containing test compound. The compound/S-APC/IQN36-biotin mixture was incubated for another 2 hours at room temperature.

## NFYDPLVFPSDEFDASISQVNEKINQSLAFIRKSDELLHNVNAGK [Compound C45, reference compound]
  inhibition of the 6-HB formation and FRET signal: no inhibitory activity up to 10 μM

From US20100280268A1, “HOMOGENEOUS TIME RESOLVED FLUORESCENCE BASED TEST SYSTEM” (priority 2006, published 2010)
